In PMC6955280:
Results are given in words; binding and its absence hold for the method and conditions named. Binding seen in cells or lysates may run through a third protein. Some results given as binding are weak or reduced against the parent protein; the word gives no strength. For part of these data: Tags and fused reporters may be left off the sequences shown.

Protein sequences, listed by entry. Tags and fused reporters are not part of them. Lines headed by an entry give the natural chain unless they say otherwise; changes in a name come on top. Chains listed by the source or under a name are the forms on record and can include a tag or linker. Residues count along the entry.
UniProt Q2HR73: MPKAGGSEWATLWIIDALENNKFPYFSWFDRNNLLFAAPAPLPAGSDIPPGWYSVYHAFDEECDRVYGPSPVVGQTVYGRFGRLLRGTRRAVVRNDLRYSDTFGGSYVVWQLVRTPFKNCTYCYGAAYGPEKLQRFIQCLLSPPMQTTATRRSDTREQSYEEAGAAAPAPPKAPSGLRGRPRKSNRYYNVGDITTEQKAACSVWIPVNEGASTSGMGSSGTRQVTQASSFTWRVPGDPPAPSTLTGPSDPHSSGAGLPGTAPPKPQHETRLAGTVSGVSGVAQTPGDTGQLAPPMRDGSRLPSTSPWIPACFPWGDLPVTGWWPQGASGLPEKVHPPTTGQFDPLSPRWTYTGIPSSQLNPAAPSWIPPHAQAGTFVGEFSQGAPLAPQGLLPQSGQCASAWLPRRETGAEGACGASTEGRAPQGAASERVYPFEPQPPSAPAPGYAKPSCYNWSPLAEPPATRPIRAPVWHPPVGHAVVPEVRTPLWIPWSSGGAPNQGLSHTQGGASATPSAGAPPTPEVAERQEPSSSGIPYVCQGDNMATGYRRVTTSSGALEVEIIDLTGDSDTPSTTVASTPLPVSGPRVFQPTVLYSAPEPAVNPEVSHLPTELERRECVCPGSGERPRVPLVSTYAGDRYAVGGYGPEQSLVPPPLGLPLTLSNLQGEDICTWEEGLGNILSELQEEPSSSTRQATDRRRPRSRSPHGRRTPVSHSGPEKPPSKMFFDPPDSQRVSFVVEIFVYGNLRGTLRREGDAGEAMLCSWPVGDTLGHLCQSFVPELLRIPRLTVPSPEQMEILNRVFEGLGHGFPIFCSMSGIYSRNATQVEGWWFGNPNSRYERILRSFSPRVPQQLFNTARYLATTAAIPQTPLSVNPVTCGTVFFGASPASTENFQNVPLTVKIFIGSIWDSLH
UniProt Q93009: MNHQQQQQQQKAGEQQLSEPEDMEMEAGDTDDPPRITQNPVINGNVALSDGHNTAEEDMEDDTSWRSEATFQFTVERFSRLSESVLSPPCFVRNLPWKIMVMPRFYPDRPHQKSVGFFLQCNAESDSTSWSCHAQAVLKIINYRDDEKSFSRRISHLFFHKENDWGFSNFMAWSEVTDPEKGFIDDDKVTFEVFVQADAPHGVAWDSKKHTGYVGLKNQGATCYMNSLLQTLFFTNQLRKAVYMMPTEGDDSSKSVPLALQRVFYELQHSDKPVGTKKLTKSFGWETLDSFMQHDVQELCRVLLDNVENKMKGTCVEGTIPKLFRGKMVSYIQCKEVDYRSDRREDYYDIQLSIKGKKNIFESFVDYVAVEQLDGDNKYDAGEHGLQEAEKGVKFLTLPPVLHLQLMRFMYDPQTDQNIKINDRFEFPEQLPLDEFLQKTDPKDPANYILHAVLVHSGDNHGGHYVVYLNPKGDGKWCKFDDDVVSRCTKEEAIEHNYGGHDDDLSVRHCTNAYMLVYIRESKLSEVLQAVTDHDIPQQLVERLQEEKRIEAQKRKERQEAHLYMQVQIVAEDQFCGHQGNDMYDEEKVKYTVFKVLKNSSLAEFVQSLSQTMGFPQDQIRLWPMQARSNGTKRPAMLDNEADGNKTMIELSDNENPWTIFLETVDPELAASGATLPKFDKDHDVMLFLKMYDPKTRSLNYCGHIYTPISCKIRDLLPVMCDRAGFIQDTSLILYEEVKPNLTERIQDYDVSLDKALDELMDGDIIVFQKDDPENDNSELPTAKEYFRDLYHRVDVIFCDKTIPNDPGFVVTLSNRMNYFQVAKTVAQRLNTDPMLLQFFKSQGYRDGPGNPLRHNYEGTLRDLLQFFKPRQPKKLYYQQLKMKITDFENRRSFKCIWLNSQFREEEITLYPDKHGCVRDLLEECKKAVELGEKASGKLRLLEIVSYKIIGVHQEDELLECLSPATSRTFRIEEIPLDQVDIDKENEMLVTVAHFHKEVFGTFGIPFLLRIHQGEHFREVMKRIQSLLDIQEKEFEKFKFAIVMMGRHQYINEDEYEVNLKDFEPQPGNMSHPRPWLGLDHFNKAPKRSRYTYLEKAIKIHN
His6-linked USP7 residues 1 to 207 (N-terminal domain) (Q93009-3, form named): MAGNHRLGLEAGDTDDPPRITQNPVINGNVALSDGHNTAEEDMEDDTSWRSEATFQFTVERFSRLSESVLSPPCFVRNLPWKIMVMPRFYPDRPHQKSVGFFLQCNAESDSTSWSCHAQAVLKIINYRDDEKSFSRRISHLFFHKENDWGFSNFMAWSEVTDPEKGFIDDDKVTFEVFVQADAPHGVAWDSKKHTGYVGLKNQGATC

Experiments:
[1] = biological target: vIRF-4-CBD (human herpesvirus 8 (HHV-8)) (UniProt Q2HR73); test: pull-down; only the binder purified
[2] = biological target: T1, S-tagged TRAF1 (pCEBZ-TRAF1-S) (UniProt Q13077); test: co-IP
T1 sequence: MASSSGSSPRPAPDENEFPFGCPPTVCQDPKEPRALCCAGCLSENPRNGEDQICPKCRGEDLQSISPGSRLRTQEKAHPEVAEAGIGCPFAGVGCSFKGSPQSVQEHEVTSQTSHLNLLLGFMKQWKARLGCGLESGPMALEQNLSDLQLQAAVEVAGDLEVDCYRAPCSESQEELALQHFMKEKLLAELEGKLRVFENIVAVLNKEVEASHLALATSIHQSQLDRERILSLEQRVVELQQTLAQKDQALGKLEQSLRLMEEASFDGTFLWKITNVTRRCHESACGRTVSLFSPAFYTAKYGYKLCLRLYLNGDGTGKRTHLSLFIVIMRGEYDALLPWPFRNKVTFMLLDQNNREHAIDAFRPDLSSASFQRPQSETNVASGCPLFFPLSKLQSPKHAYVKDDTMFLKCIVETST

[3] = biological target: T2, S-tagged TRAF2 (pCEBZ-TRAF2-S) (UniProt Q12933); test: co-IP
T2 sequence: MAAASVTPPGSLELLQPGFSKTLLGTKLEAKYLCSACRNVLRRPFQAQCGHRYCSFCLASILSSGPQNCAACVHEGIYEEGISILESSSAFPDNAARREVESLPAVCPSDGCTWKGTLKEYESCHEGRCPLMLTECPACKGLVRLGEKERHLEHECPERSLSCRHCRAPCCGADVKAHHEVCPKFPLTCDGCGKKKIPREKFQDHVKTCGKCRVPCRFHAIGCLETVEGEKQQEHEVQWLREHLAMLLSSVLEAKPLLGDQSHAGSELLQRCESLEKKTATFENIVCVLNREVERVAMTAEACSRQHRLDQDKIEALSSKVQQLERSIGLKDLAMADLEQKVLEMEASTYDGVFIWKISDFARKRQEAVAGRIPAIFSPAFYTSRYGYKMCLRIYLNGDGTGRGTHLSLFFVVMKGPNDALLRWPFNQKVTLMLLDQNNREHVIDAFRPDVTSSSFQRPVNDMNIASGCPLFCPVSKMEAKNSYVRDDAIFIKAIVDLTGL

Substance	binding [1]	binding [2]	binding [3]
His6-linked USP7 residues 1 to 207 (N-terminal domain) (from UniProt Q93009-3 1-207) (domain or fragment)	binds		
endogenous USP7 of HEK293T cells (from UniProt Q93009 1-1102) (enzyme)		binds	binds
